Data taken from publication PMC6997161.
These are yes or no findings as the source states them, for the method shown. For some assays here: In cells and extracts the contact can be indirect. Some entries that bind do so weakly or less than the wild type. For some assays here: Where a sequence is shown, tags or fusion partners need not be part of it.

By UniProt entry, the sequences of proteins in these tests, tags left out.
UniProt Q9S7N2: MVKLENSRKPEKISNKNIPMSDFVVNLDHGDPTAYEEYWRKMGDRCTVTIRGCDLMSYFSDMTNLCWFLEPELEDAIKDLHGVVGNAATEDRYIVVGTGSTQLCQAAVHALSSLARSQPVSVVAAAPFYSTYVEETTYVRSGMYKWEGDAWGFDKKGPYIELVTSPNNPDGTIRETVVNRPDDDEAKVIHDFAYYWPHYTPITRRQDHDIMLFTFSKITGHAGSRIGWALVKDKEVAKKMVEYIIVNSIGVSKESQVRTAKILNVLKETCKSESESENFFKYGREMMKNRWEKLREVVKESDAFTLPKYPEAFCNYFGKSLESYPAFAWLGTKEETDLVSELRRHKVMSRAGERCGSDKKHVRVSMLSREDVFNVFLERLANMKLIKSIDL
UniProt Q9LR29: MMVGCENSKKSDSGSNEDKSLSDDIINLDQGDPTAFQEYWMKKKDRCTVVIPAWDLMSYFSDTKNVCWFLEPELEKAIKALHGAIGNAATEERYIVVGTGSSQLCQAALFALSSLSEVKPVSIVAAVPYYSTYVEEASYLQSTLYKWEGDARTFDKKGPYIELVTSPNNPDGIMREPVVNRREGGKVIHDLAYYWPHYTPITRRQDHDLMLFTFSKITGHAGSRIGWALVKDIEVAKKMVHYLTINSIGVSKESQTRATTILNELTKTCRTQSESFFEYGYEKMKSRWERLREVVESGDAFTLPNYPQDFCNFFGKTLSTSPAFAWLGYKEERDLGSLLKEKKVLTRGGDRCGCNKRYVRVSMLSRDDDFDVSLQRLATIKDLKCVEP

B1: GST-TMK4 kinase domain (KD) (domain or fragment, UniProt Q9LK43 587-928)
chain: GGFGVVYAGELHDGTKTAVKRMECAAMGNKGMSEFQAEIAVLTKVRHRHLVALLGYCVNGNERLLVYEYMPQGNLGQHLFEWSELGYSPLTWKQRVSIALDVARGVEYLHSLAQQSFIHRDLKPSNILLGDDMRAKVADFGLVKNAPDGKYSVETRLAGTFGYLAPEYAATGRVTTKVDVYAFGVVLMEILTGRKALDDSLPDERSHLVTWFRRILINKENIPKALDQTLEADEETMESIYRVAELAGHCTAREPQQRPDMGHAVNVLGPLVEKWKPSCQEEEESFGIDVNMSLPQALQRWQNEGTSSSTMFHGDFSYSQTQSSIPPKASGFPNTFDSADGR

How the values were obtained:
[1] = target: TAA1-Flag (Arabidopsis thaliana) (UniProt Q9S7N2); test: co-IP; coexpressed in Arabidopsis Col-0 protoplasts; anti-Flag beads, 4 °C for 4 h; 50 mM Tris-HCl pH 7.5, 150 mM NaCl, 5 mM EDTA, 5% glycerol, 1% TritonX-100; western blot
[2] = target: TAA1-His (Arabidopsis thaliana) (UniProt Q9S7N2); test: pull-down; TAA1-His or His-Sumo held on Ni-NTA resin, incubated with GST-TMK4 KD in 20 mM HEPES pH 7.5, 40 mM KCl, 1 mM EDTA, 1% glycerol, 0.1‰ TritonX-100, 2 h at 4 °C; detected with GST antibody; both purified

Molecule | binding [1] | binding [2]
TAR1-GFP (Tryptophan Aminotransferase Related protein 1) (from UniProt Q9LR29 1-388) (enzyme) | binds | 
B1 |  | binds
